According to patent US20240358843A1, “LIGAND-DRUG CONJUGATE AND USE THEREOF” (priority 2021, published 2024):
Part of at least one peptide drawing is inferred or uncertain, most often the ends. Starred links: 1 amine or outer side, 2 acyl side, 3 side chain; linkers in the order of their positions; H or OH if unused. Residues, ends and D or L forms follow the SMILES beside them. *: point of attachment. X1 = CC[C@@]1(O)C(=O)OCc2c1cc1n(c2=O)Cc2c-1nc1cc(F)c(C)c3c1c2[C@@H](NC(=O)CNC(=O)[C@H](Cc1ccccc1)NC(=O)CNC(=O)CNC(=O)CCCCC(=O)*)CC3; Pteroyl = Nc1nc2ncc(CNc3ccc(C(=O)*)cc3)nc2c(=O)[nH]1; γGlu = O=C(O)[C@H](CCC(=O)[*:2])N[*:1]

Experiments:
SK-BR-3 cells = experiment: Cell expansion inhibition assay (CCK-8, 72 h), Table 3; format: cell-based, human; settings: FOLR1 low expression
Experimental: (§1) Cell lines: HEK293T-FOLR1 (a stably transformed cell line overexpressing FOLR1), SK-BR-3 (human breast cancer cell) and HEK293T (human embryonic kidney cell).
(§2) Main reagents: 1640 folic acid-free medium, fetal bovine serum, penicillin-streptomycin solution, L-glutamine and CCK8.
(§3) (1) Cell plating: Cells were prepared in advance, digested with Trypsin, collected and counted. A complete cell culture medium was used to dilute HEK293T-FOLR1 and HEK293T cells to 6×10^3 cells/ml, and dilute SK-BR-3 cells to 1.5×10^4 cells/ml. 100 μl of diluted cell solution was added to each well of 96-well plates, and negative and blank control wells were set on each plate. The 96-well plates added with the cells were placed in an incubator at 37° C., 5% CO2 for culturing overnight.
(§4) (2) Diluting and adding samples: The samples were serially diluted with medium (the starting concentration was 30 μM, 5-fold serial dilution), and a total of 10 concentration gradients were set. To each well of the 96-well plates that were cultured overnight, 50 μl of the diluted samples were added, with 3 replicate wells; negative controls and blank controls were set; and the plates were placed in an incubator at 37° C., 5% CO2 for culturing 72 h.
(§5) (3) Color development and reading plate: To each well, 15 μl (10% of the liquid volume in a well) of a color developing solution from CCK-8 was added; the plates were incubated at 37° C. for an appropriate time (try to keep the OD value in the range of 1.0-2.5); the covers of the 96-well plates were removed, and the plates were read at 450 nm on a microplate reader (Molecular Devices SpectraMax iD5).
(§6) (4) Data processing: The data was edited using SoftMax Pro 7.1 and a four-parameter fitting curve was plotted.

HEK293T-FOLR1 cells = experiment: as above; format: cell-based, human; settings: FOLR1 high expression
Experimental: as §1, §2, §3, §4, §5, §6

HEK293T cells = experiment: as above; format: cell-based, human; settings: no visible FOLR1 expression
Experimental: as §1, §2, §3, §4, §5, §6

[1] = test system: CFPAC-1 (human pancreatic cancer cell); experiment: CDX model of CFPAC-1; parameters: species or system BALB/c-nude mice; settings: in vivo
[2] = test system: OV2423, an animal model of ovarian cancer; experiment: HuPrime xenograft PDX model OV2423; format: in vivo, BALB/c-nude mice
293T-FOLR1 cell line = experiment: Subcutaneous xenograft model (CDX) of 293T-FOLR1 cell line; format: in vivo, BALB/c-nude mice

For `CC[C@@]1(O)C(=O)OCc2c1cc1n(c2=O)Cc2c-1nc1cc(F)c(C)c3c1c2[C@@H](NC(=O)CNC(=O)[C@H](Cc1ccccc1)NC(=O)CNC(=O)CNC(=O)CCCCC(=O)NCCCC[C@H](NC(=O)[C@H](CS)NC(=O)CC[C@H](NC(=O)c1ccc(NCc2cnc4nc(N)nc(O)c4n2)cc1)C(=O)O)C(=O)N[C@@H](CCC(=O)O)C(=O)N[C@@H](Cc1ccccc1)C(=O)N[C@@H](CC(C)C)C(=O)N[C@@H](Cc1c[nH]cn1)C(=O)N1CCC[C@H]1C(=O)N[C@@H](CO)C(=O)N[C@@H](CCCCN)C(=O)N[C@H](C(=O)N[C@@H](CC(=O)O)C(=O)N[C@@H](CC(C)C)C(=O)N1CCC[C@H]1C(=O)N[C@@H](CCCNC(=N)N)C(=O)O)C(C)C)CC3` [CR194AX] ({Pteroyl-γGlu}-CK(X1)EFLHPSKVDLPR-OH), the IC50 (SK-BR-3 cells) was 133 nM, the IC50 (HEK293T-FOLR1 cells) was 0.195 nM and the IC50 (HEK293T cells) was 1210 nM. For the same compound, the “inhibitory effect on the CDX tumor model of mouse CFPAC-1” value [1] was “good inhibitory effect”, the TGI ([2]; 25 mg/kg (days 1, 4, 7, 10, 13, 16), tail vein) was 99.41% and the “anti-tumor growth effect in the FOLR1 single expression model OV2423” value ([2]; mouse, in vivo) was “excellent anti-tumor growth effects”. For the same compound, the “anti-tumor growth effect compared with the negative control group” value (293T-FOLR1 cell line; high dose (10 mg/kg)) was “excellent anti-tumor growth effects” and the “anti-tumor growth effect compared with the negative control group” value (293T-FOLR1 cell line; medium dose (3 mg/kg)) was “certain anti-tumor growth effects”.
